Protein sequences, listed by entry. Tags and fused reporters are not part of them. Lines headed by an entry give the natural chain unless they say otherwise; changes in a name come on top.
UniProt P0AFB8: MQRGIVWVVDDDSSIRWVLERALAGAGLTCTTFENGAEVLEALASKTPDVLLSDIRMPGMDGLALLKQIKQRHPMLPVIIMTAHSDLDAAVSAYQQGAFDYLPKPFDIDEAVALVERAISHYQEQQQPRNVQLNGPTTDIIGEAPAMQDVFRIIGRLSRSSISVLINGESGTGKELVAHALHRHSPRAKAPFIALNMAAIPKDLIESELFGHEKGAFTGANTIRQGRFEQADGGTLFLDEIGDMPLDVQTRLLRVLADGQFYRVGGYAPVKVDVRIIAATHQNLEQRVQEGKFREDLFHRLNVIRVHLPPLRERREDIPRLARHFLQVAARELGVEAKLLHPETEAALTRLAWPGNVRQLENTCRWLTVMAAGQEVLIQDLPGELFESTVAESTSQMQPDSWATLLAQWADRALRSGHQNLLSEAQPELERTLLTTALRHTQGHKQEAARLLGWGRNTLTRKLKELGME

In publication PMC8743547:

Target: NtrC (Escherichia coli K-12 W3350 type-A) (UniProt P0AFB8)
Assay: EMSA
Details: 15 uM NtrC, acetylphosphate, EMSA: gel-shift buffer (composition not stated) with 25 mM acetylphosphate and ATP, 37 C, 30 min, 3.5% PAGE, GelRed stain, recombinant protein, protein details: His-tag, probe letters rebuilt from the primers and the genome

Sequence | binding result (smear) | binding result
ACCAGAACGAATACTATTATGGCGTATCGCGCAAAGAGTCCGCTCGCAGCGGTCTGCGTGGCTATAACCCGAACGACAGCTGGAGCCCTTACCTGGAGCTGAGCGCCAGCTACAACTTCCTCGGCGACTGGAGTGTTTACGGTACCGCACGCTACACCCGTCTGTCTGATGAAGTTACTGACAGCCCGATGGTGGATAAATCCTGGACTGGCCTGATTTCTACCGGGATCACCTACAAATTCTGATAATGCATCTTTCCAGGGCATTTTGTGCATAAAAACAGGGCGTCACGCCCTGTTTTGCATTACGGTGGTGCAATACCTGGGAGGAAACAATGCAACAAAAAATGATTCAATTTAGTGGCGATGTCTCACTGCCAGCCGTAGGGCAGGGAACATGGTATATGG (double strand) [yeaE probe] | binds | 
CCTATCAGTTCCTGAATTACCTGCTGCGCCCGGATGTAGTAGCGCATATTTCCGACCATGTGTTCTATGCCAACGCCAATAAAGCAGCCACGCCGCTGGTGAGTGCGGAAGTCCGTGAGAACCCAGGTATTTATCCGCCTGCGGATGTTCGTGCGAAGCTGTTCACTCTGAAAGTGCAGGATCCGAAAATCGACCGTGTGCGCACCCGCGCGTGGACCAAAGTGAAGAGCGGAAAATAATCCGCAGTCGTAGATGCCGGAGGGGCGCACCACACCCGCCGGCAATTCGCACCATTATGGTGCGCTTGCACACATTCAATGCCGGAGAGCAGCCGTGAATGACGCTATCCCTCGCCCGCAGGCGAAAACCCGTAAGGCGCTGACGCCGCTATTAGAAATCCGCAACCTGACCAAATCCTAC (double strand) [potG probe] |  | binds
CTCATCTTCTGACTTTAATGGCGCTCAGGGTGCAGCAATATTGGCGCATCAACGTTTTTTGCCACAGTTCTGTGCTAAAGCCCCATGAGTAAAACGTTGGCACAGTAGCGCAATGTCCCGCTGTGCCAACGACAGGTACAATATATACGTAAACACATAAACGACGGTTATTATTTCTGCAATGATAGTTTTACTGTAATTTTCCCCTTCCAGCACAAATGCCTATCAAAATGGCGCGTTCCGCCTCACACTTCCACTTCTATTAAAGTCGCAATTTCCCAATTGGCGATAACGCCAGCTTTTAAAATGACGTGCATTTTGCATGGATTACATTATCAATTAATATAAATGATAAATGGAGATTTATATGAATAACTCTCG (double strand) [yjcS probe] | binds | 
CGCGGATCCCGTTGATTTCCTCTGTATGTGCACCCAAGGTGCCAGATAAACGTTGTGGATATTTTACGCTTCCGGAAAGTGCTGCTCCAGTTGTTAATTCTGCAAAATCGGATAAGTGACCGAAATCACACTTAAAAATGATCTAAAACAAAATTCACCCGAATCCATGAGTGCGCCACCTCCAAATTTTGCCAGCTGGATCGCGTTTCTTAGATCATATTTGAAAAAAGATATAAACATACTTGCAACATTCCAGCTGGTCCGACCTATACTCTCGCCACTGGTCTGATTTCTAAGATGTACCTCAGACCCTACACTTCGCGCTCCTGTTACAGCACGTAACATAGTTTGTATAAAAATAAATCATTGAGGTTATGGTCATGAGCCAGAAAACCCTGTTTACAAAGTCTGCTCTCGCAGTCGCAGTGGCACTTATCTCCACCCAGGCCTGGTCGGCAGGCTTTCAGTTAAACGAATTTTCTTGAATTCCGG (double strand) [yfcZ/fadL probe] | binds | 
GCGCAGGCGTATTTCAATTCGATCTCCAGATCAGGGAAGATTACGGCTAAATCAACCAGTTCGGTGGTATCCGACATAAACGGTTCCTGTATAAGACAAAAATTGCTGCGCTTTCCGCTTATGCAGATCTCATGCCATGCCGGGATAAGCGCCAGAATGCTGGCTTAAAGTTATATTTTTTAACTTTTGATCAACATTTGTGCAGCGTAGTGCAGTTTTGGTGCAAGAGGGGAAGTTAAGGAAGGAATCTCCCGGAATCGTAGCTGAAATCACAGTATTTAAGTGACAGTGTCACGTTAAATGAAAACCCGCGAGTGCGGGCGAGAGGAATTTGTCAGATTTTCAGCGGTAACACGCTGCTCATCCAGCCTGGAATTTCTTCGGCGGGTAGGGGGCGGGAAAAGAAATA (double strand) [ddpX probe] |  | binds

For at least one entry, the source does not settle the construct or the ends of the probe.
